{"sequences": {"note": "Chains of the proteins cited; added tags and fusions are not shown. Residues count along the entry.", "UniProt P02769, 25-607": "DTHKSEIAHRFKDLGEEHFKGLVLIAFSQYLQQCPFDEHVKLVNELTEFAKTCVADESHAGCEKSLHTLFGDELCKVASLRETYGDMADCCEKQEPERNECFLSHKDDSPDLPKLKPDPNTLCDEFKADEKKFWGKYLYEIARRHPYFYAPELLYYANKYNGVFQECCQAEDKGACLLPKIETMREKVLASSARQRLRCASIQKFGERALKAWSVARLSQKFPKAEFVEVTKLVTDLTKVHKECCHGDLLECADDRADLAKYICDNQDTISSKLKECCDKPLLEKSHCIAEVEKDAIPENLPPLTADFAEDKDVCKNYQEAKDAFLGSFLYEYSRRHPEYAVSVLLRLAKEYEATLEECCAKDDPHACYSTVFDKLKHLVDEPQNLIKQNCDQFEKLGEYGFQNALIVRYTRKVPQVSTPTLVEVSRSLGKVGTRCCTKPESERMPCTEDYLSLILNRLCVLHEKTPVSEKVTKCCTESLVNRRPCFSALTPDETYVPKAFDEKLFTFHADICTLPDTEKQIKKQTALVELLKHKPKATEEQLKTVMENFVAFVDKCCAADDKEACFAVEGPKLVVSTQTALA"}, "source": "patent US9872840B2", "about": "“Effect of garcinol in delaying the progression of diabetic nephropathy” (Delhi Institute of Pharmaceutical Sciences and Research, priority 2013, dated 2018)", "key": {"α-glucosidase": {"tested_on": "α-glucosidase", "assay": "α-glucosidase inhibitory activity in vitro (release of 4-nitrophenol from 4-NPGP)", "type": "biochemical"}, "[1]": {"tested_on": "glucose transporter 2 (GLUT2)", "assay": "GLUT-2 protein expression in liver of diabetic rats (Western blot)", "type": "in vivo, rat", "conditions": "8 weeks treatment, FIG. 3", "description": "(§1) For determination of glucose transporter 2 (GLUT2) protein expressions in liver and glucose transporter 4 (GLUT4) protein expressions in skeletal muscle; each sample prepared was mixed with 1% sodium dodecyl sulfate and 50 mM dithiothreitol, and the mixture was subjected to electrophoresis with 10% polyacrylamide gel. The separated proteins on the gel were electrotransferred to a polyvinylidene difluoride membrane. After blocking with 5% skim milk solution including 0.05% Poly (Oxyethylene) sorbitan monolaurate (Tween 20) overnight at 4° C., the membrane was reacted with anti-GLUT-2 antibody (Abcam, UK) & anti-GLUT-4 antibody (Abcam, UK) for 2 h. Subsequently, it was incubated with horseradish peroxidase conjugated IgG (diluted 1:2000) [Jackson immunoresearch laboratories, USA] for 2 h at room temperature (Western Blot). Reduced qualitative expression of GLUT2 and GLUT 4 in liver and muscle respectively of diabetic rats were improved with the garcinol treatment (FIG. 3), which were better than observed with olmesartan."}, "[2]": {"tested_on": "glucose transporter 4 (GLUT4)", "assay": "GLUT-4 protein expression in soleus muscle of diabetic rats (Western blot)", "type": "in vivo, rat", "conditions": "8 weeks treatment, FIG. 3", "description": "as §1"}, "STZ diabetic rats [3]": {"tested_on": "STZ diabetic rats", "assay": "Kidney histopathology, glomerulosclerotic index (periodic acid-Schiff)", "type": "in vivo, rat", "conditions": "kidney of diabetic rats, 8 weeks, FIG. 4", "text": "Kidney sections were stained with periodic acid-Schiff's reagent and Masson's modified trichrome to assess glomerulosclerosis and collagenous tubulointerstitial matrix, respectively.\nIn 4 μm kidney sections stained with periodic acid-Schiff's reagent, 150 glomeruli from each animal were examined. The extent of sclerosis in each glomerulus was subjectively graded on a scale of 0 to 4, with the following grades: grade 0 normal, grade 1 sclerotic area <25% (minimal), grade 2 sclerotic area 25-50% (moderate), grade 3 sclerotic area 50-75% (moderate to severe) and grade 4 sclerotic area 75-100% (severe). A glomerulosclerotic index was then calculated using the formula: […]\nWhere GSI is glomerulosclerotic index, Fi is the % of glomeruli in the rat with a given score (i)."}, "STZ diabetic rats [4]": {"tested_on": "STZ diabetic rats", "assay": "DNA fragmentation assay (TUNEL) for apoptosis in kidney", "type": "in vivo, rat", "conditions": "kidney of diabetic rats, FIG. 4", "description": "For detection and localization of apoptosis in kidney, the technique of terminal deoxynucleotidyl transferase-mediated dUTP nick end labeling (TUNEL) (Apo-BrdU-IHC™ In Situ DNA Fragmentation Assay Kit, Biovison, USA) were employed. Briefly, sections were deparaffinized, hydrated, and digested with proteinase K (20 μg/ml), and then added biotinylated dUTP to the 3′ end of DNA fragments by incubating sections in 0.05 mol/l Tris-HCl buffer (pH 7.6) with 0.03 U/μl TdT and 0.04 nmol/μl biotin-11-dUTP at 37° C. for 1 h. The sections were rinsed in PBS. Endogenous peroxidase was blocked with 0.3% H2O2 in distilled H2O. The sections were rinsed with PBS and covers with 2% blocking solution in 0.1 mol/l sodium maleate to reduce background staining. The sections were then incubated with avidin-peroxidase complexes in PBS (1:50) for 30 min and rinsed with PBS (3×5 min). Peroxidase activity was visualized with 3,3′-diaminobenzidine until the brown product was clearly visible. The sections were then counterstained with methyl green. The positive apoptotic cells were the cells with brown nucleus 2.10."}, "[5]": {"target": "bovine serum albumin/fructose system (Bos taurus, UniProt P02769)", "conditions": "in vitro, Baliga et al. 2011; cited from earlier work"}}, "note": "At least one structure is not confirmed: it was looked up by name or label, or the drawing left a doubt.", "data": [{"compound": "C=C(C)[C@@H](CC=C(C)C)C[C@@]12C[C@@H](CC=C(C)C)C(C)(C)[C@@](CC=C(C)C)(C(=O)C(C(=O)c3ccc(O)c(O)c3)=C1O)C2=O", "note": "[Garcinol]", "values": [{"measurement": "Inhibition of the enzyme α-glucosidase", "setting": "α-glucosidase; 1000 μg/ml of garcinol", "result": "~50", "unit": "%"}, {"measurement": "α-glucosidase inhibitory activity (in words)", "setting": "α-glucosidase; in vitro", "result": "dose dependent α-glucosidase inhibitory activity"}, {"measurement": "Qualitative expression of GLUT2 in liver", "setting": "[1]", "result": "improved"}, {"measurement": "Qualitative expression of GLUT 4 in muscle", "setting": "[2]", "result": "improved"}, {"measurement": "Histopathological changes in kidney (qualitative)", "setting": "STZ diabetic rats [3]", "result": "improved thickening of glomerular basement membrane in most glomeruli, reduced capillary occlusion, and mesangial expansion"}, {"measurement": "DNA fragmentation / apoptosis in kidney (qualitative)", "setting": "STZ diabetic rats [4]", "result": "decrease in the DNA fragmentation was clearly observed qualitatively"}, {"measurement": "Protein glycation", "setting": "[5]", "result": "suppressed the protein glycation"}]}]}
